Source: paper PMC3420021, “Crystallographic Analysis of Polypyrimidine Tract-Binding Protein-Raver1 Interactions Involved in Regulation of Alternative Splicing” (Structure(London, England:1993), 2011)
Results are given in words; binding and its absence hold for the method and conditions named. For some of these results: Binding seen in cells or lysates may run through a third protein. Some binding calls cover weakened binding; strength is not graded here.

Chains of the proteins cited; added tags and fusions are not shown. Lines headed by an entry give the natural chain unless they say otherwise; changes in a name come on top. A line that says so, or that is headed by a name, gives the form on record, which may keep a tag or linker. Residues count along the entry.
GST-PTB RRM2 (residues 181-284), wild type (P26599, residues 181-284): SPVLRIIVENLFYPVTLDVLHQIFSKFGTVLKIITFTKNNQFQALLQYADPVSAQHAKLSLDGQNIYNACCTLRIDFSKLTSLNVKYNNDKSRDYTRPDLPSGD
GST-PTB RRM2 (residues 181-284), mutant K271A (P26599, form named): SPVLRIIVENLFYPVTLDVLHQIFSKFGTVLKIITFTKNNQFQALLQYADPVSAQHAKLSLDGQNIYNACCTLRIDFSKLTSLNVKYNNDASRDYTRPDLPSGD
GST-PTB RRM2 (residues 181-284), mutant Y247Q (P26599, form named): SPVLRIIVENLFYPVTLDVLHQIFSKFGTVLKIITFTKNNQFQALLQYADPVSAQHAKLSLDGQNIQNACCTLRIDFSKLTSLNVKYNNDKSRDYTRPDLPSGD

Experiments:
[1] = biological target: PRI3-RRM2 chimera (Raver1 PRI3 fused as an N-terminal extension to PTB residues 156-285) (murine | not stated) (UniProt P26599); experiment: SEC + other: NMR; purified PRI3-RRM2, concentration-dependent; data not shown; both purified
[2] = biological target: GST-PTB RRM2 (residues 181-284), mutant K271A (UniProt P26599); experiment: pull-down; in vitro translated full-length Raver1 pulled down with recombinant GST-PTB RRM2 fusion proteins; only the target purified
[3] = biological target: GST-PTB RRM2 (residues 181-284), mutant Y247Q (UniProt P26599); experiment: as above
[4] = biological target: GST-PTB RRM2 (residues 181-284), wild type (UniProt P26599); experiment: as above

Row | binding [1] | binding [2] | binding [3] | binding [4] | Molecule
1 | binds | – | – | – | PRI3-RRM2 chimera (Raver1 PRI3 fused as an N-terminal extension to PTB residues 156-285) (from UniProt P26599 156-285)
2 | – | binds | no binding | binds | Raver1, full length, in vitro translated (protein, UniProt Q9CW46 1-748) MAADVSVTHRPPLSPEAEAEAETPETVDRRAPEQELPPLDPEEIRKRLEHTERQFRNRRKILIRGLPGDVTNQEVHDLLSDYELKYCFVDKYKGTAFVTLLNGEQAEAAINTFHQSRLRERELSVQLQPTDALLCVANLPPSLTQAQFEELVRPFGSLERCFLVYSERTGHSKGYGFAEYMKKDSAARAKSDLLGKPLGPRTLYVHWTDAGQLTPALLHSRCLCVDHLPPGFSDVDALRRALSVVYTPTFCQLACGQDGQLKGFAVLEYETAEMAEAAQERADGQALGDSHLRVSFCAPGPPGRSMLAALIAAQATALNRGKGLLPEPNLLQLLNNLGPSASLQLLLNPLLHGGASGKQGLLGAPPAMPLLSGPALSTALLQLALQSQSQNQSQGQKKPGILGDSPLGTLQAGAQPSNSLLGELSAGGGLAPELPPRRGKPQPLLPPLLGPSGGDREPMGLGPPATQLTPPPAPVGLRGSNHRGLPKDSGPLPTPPGVSLLGEPPKDYRIPLNPYLNLHSLLPSSNLAGKETRGWGGSGRGRRPAEPPLPSPAVPGGGSGSNNGNKAFQMKSRLLSPIASNRLPPEPGLPDSYGFDYPTDVGPRRLFSHPREPTLGAHGPSRHKMSPPPSSFNEPRSGGGSGGPLSHFYSGSPTSYFTSGLQAGLKQSHLNKAVGSSPMGSSEGLLGLGPGPNGHSHLLKTPLGGQKRSFSHLLPSPEPSPEGSYVGQHSQGLGGHYADSYLKRKRIF
